In patent publication US7687546B2, “Quaternary ammonium compound, process for producing the same, therapeutic agent for cerebrovascular disorder, and therapeutic agent for heart disease” (Activus Pharma Co., Ltd., priority 2004, dated 2010):
Some of these results come from one statement about several compounds together.

Test system: rats
Test: Safety test, intravenous administration into rats
Settings: dose of 150 mg/kg

C[N+](C)(C)CCOc1ccc(O)c(C(=O)[O-])c1 [Compound 9]
Death following intravenous administration: None of the animals died

C[N+](C)(C)CCOc1cc(O)cc(C(=O)[O-])c1O [Compound 28]
Death following intravenous administration: None of the animals died

C[N+](C)(C)CCOc1cc(C(=O)[O-])c(O)cc1O [Compound 30]
Death following intravenous administration: None of the animals died

C[N+](C)(C)CCOc1cc(C(=O)[O-])cc(O)c1O [Compound 31]
Death following intravenous administration: None of the animals died

C[N+](C)(C)CCOc1ccc(C(=O)[O-])c(O)c1O [Compound 32]
Death following intravenous administration: None of the animals died

C[N+](C)(C)CCOc1ccc(O)c(O)c1C(=O)[O-] [Compound 33]
Death following intravenous administration: None of the animals died

COc1ccc(C(=O)[O-])cc1OCC[N+](C)(C)C [Compound 39]
Death following intravenous administration: None of the animals died

C[N+](C)(C)CC(O)Oc1ccc(O)c(C(=O)[O-])c1 (stereo not drawn) [Compound 56]
Death following intravenous administration: None of the animals died

C[N+](C)(C)CCOc1ccc(S(=O)(=O)[O-])cc1 [Compound 60]
Death following intravenous administration: None of the animals died

C[N+](C)(C)CCOc1ccc(O)c(S(=O)(=O)[O-])c1 [Compound 66]
Death following intravenous administration: None of the animals died

CC[N+](CC)(CC)CCOc1ccc(S(=O)(=O)[O-])c(O)c1 [Compound 71]
Death following intravenous administration: None of the animals died

C[N+](C)(C)CCCOc1cc(S(=O)(=O)[O-])ccc1O [Compound 77]
Death following intravenous administration: None of the animals died
